The values that follow are results of earlier work, collected in patent US9241922B2, “Pharmaceutical solution of taxanes comprising pH regulator and preparation method thereof” (Tasly Holding Group Co., Ltd., priority 2009, dated 2016).

For this data set the following is noted: background statement.

On to `CC(=O)O[C@@]12CO[C@@H]1C[C@H](O)[C@@]1(C)C(=O)[C@H](O)C3=C(C)[C@@H](OC(=O)[C@H](O)[C@@H](NC(=O)OC(C)(C)C)c4ccccc4)C[C@@](O)([C@@H](OC(=O)c4ccccc4)[C@H]21)C3(C)C` [docetaxel], for which the water-solubility result is recorded as “about 4 μg/ml”.

As for `CC(=O)O[C@H]1C(=O)[C@@]2(C)[C@H]([C@H](OC(=O)c3ccccc3)[C@]3(O)C[C@H](OC(=O)[C@H](O)[C@@H](NC(=O)c4ccccc4)c4ccccc4)C(C)=C1C3(C)C)[C@]1(OC(C)=O)CO[C@@H]1C[C@@H]2O` [paclitaxel], the water-solubility entry is “about 4 μg/ml”.
